Results: paper PMC9911396
These are yes or no findings as the source states them, for the method shown. In cells and extracts the contact can be indirect. Some entries that bind do so weakly or less than the wild type.

By UniProt entry, the sequences of proteins in these tests, tags left out.
UniProt Q13547: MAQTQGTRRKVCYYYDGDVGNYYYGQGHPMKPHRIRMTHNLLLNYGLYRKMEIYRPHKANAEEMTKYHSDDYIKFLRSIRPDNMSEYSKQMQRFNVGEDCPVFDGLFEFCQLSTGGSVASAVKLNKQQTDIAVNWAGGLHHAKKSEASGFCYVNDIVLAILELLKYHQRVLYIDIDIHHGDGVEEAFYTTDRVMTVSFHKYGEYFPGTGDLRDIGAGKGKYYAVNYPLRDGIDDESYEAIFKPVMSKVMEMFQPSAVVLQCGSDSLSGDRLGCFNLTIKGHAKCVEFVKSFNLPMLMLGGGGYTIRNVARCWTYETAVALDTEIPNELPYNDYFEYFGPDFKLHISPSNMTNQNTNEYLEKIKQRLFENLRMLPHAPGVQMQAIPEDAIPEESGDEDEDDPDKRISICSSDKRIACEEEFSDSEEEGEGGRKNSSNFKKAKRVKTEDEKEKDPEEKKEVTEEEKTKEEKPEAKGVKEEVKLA
UniProt Q13263: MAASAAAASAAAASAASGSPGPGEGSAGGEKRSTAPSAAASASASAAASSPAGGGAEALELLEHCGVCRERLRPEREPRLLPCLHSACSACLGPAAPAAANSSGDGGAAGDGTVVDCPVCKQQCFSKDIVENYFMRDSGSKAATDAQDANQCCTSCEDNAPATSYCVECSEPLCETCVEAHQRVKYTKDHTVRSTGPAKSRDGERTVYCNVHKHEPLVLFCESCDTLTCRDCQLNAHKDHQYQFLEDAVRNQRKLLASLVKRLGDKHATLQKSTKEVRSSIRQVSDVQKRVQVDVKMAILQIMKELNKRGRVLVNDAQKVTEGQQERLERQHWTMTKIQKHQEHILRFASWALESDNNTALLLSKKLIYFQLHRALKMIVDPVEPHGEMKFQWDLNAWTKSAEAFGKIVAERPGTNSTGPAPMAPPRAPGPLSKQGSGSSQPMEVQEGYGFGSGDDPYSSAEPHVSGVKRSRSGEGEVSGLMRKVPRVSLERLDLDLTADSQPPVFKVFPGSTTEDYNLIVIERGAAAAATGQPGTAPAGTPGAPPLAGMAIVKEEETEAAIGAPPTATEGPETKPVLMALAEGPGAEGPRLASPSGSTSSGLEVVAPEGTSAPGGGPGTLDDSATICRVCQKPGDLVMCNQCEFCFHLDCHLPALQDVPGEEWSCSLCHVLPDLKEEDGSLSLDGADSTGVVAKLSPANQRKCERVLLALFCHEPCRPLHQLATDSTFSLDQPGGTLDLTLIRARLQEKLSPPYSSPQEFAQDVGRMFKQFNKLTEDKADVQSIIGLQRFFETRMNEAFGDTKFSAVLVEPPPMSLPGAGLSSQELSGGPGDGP

Target: T1, ZBTB12, BTB domain-containing zinc finger protein (not stated (human or mouse cDNA cloned)) (UniProt Q9Y330)
T1 sequence: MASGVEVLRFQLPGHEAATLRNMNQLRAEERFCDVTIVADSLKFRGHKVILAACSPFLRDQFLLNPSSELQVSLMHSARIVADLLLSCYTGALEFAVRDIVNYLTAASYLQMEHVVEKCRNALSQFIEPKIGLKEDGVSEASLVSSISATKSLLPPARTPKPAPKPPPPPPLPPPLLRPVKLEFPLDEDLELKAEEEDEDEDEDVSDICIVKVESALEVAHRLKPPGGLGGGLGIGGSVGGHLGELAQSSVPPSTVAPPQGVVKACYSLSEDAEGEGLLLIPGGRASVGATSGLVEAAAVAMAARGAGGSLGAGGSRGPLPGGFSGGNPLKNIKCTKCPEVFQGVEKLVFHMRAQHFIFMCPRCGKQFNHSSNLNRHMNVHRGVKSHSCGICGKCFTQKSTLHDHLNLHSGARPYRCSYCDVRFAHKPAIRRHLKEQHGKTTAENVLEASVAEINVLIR
Experiment: co-IP; cell lysates in IP-lysis buffer (50 mM Tris-HCl pH7.5, 150 mM NaCl, 0.5% TX-100, 1 mM EDTA, protease inhibitors), 4 °C; immunoprecipitation with anti-HA magnetic beads; Western blot; cell line not stated

Substance | binding
HDAC1 (from UniProt Q13547 1-482) | binds
KAP1 (from UniProt Q13263 1-835) | no binding
